The text below walks through data of patent publication US4002754A, “Substituted piperazinyliminorifamycins” (Gruppo Lepetit S.p.A., priority 1975, dated 1977).

≈ marks a conversion by molar mass, not a printed value.

This assay concerns Mycobacterium tuberculosis H37 Rv. In words: minimal inhibitory concentration (antimicrobial activity). The conditions noted are these: H37RV, read-out: minimal inhibitory concentration. The format is cell-based. From the text: The unexpected biological characteristics of the novel rifamycins have been evidenced by considering the survival time after a daily administration of rifampicin and a once-a-week administration of the same dose level per os of 3-[4-(2-propenyl)-1-piperazinyl]iminorifamycin SV (hereinafter referred to as "propenyl derivative") to mice infected with Mycobacterium tuberculosis H37 Rv. […] For instance, the value of the minimal inhibitory concentration of propenyl derivative against Mycobacterium tuberculosis H37 Rv is 0.02 μg/ml while that of rifampicin is 0.5 μg/ml.

On to `CO[C@H]1/C=C/O[C@@]2(C)Oc3c(C)c(O)c4c(O)c(c(/C=N/N5CCN(C)CC5)c(O)c4c3C2=O)NC(=O)/C(C)=C\C=C\[C@H](C)[C@H](O)[C@@H](C)[C@@H](O)[C@@H](C)[C@H](OC(C)=O)[C@@H]1C` [rifampicin, reference compound], for which the MIC stood at 0.5 µg/mL (≈ 0.608 µM).
